Measurements as given in patent publication EP4417202A1, “ANTI-CANCER ACTION OF BAG1-SELECTIVE IMIDAZOPYRIDINE COMPOUNDS IN STEROID HORMONE RECEPTOR-POSITIVE BREAST AND PROSTATE CANCER” (Karlsruher Institut für Technologie, priority 2023, dated 2024).
At least one read-out could not be matched to a standard name with certainty.

System: BAG1 shRNA knockdown LNCaP prostate cancer cells
Experiment: Clonogenic assay in BAG1 shRNA knockdown LNCaP cells
Format: cell-based
Conditions: two BAG1 shRNA LNCaP clones versus control clone

Fc1ccc(-c2cn3cc(C(F)(F)F)cc(Cl)c3n2)cc1 [Compound X15695, 8-Chloro-2-(4-fluorophenyl)-6-(trifluoromethyl)imidazo[1,2-a]pyridine]
IC50 values of inhibition of the clonal expansion: compromised compared to that of the control
